Measured values as given in PMC9820335.
Positions count from the first letter of the chain named. Like-named read-outs stand apart in the source and are kept apart here. These are yes or no findings as the source states them, for the method shown. Binding seen in cells or lysates may run through a third protein. Some binding calls cover weakened binding; strength is not graded here. Where a sequence is shown, tags or fusion partners need not be part of it. Values belong to the molecule of their own block, whether it stands above or below them.

Chains of the proteins cited; added tags and fusions are not shown.
UniProt O60260: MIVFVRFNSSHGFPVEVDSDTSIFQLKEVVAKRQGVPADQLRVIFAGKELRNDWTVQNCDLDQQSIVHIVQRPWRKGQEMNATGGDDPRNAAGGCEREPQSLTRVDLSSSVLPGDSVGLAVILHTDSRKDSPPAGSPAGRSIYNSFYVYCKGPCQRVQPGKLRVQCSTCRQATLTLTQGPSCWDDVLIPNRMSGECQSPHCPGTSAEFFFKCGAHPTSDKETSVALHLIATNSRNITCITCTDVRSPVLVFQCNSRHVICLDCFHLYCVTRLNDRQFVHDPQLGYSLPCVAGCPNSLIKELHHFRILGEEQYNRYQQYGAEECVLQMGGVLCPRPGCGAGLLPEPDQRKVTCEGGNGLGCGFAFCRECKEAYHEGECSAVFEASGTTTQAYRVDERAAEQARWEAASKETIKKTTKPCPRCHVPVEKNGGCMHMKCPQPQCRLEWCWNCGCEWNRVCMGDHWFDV

How the values were obtained:
Assay in all cases: co-IP; 293T cells co-transfected, treated with vehicle or GSK5182 (10 µM) for 18 h; lysates immunoprecipitated with anti-FLAG (FLAG-ERRγ forms as bait), immunoblotting for the tagged partner
[1] = biological target: T1, FLAG-ERRγ (estrogen-related receptor γ, wild type) (UniProt P62508)
T1 sequence: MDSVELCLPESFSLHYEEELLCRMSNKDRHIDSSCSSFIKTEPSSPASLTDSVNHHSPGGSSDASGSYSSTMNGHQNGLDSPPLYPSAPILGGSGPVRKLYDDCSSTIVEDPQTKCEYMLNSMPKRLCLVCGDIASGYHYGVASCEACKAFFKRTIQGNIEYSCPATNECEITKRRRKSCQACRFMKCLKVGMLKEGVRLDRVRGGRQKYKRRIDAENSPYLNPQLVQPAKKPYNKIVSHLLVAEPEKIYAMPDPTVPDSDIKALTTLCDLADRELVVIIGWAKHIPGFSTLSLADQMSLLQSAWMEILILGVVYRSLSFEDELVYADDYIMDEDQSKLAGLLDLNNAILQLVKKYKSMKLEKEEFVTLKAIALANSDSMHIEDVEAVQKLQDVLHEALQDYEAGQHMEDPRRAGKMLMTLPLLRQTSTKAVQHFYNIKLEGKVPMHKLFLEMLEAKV

FLAG-ERRγ-L449A/L451A = biological target: T2, FLAG-ERRγ-L449A/L451A (UniProt P62508)
T2 sequence: T1 sequence with L449A, L451A

[2] = biological target: T1, FLAG-ERRγ (estrogen-related receptor γ, wild type); remark: listed apart in the source

binding [1]: binds
Molecule: Myc-Parkin (from UniProt O60260 1-465) (enzyme)

binding (FLAG-ERRγ-L449A/L451A): binds
binding [2]: binds
B1: HA-SMILE (small heterodimer partner-interacting leucine zipper protein) (protein, UniProt Q9NS37 1-354)
chain: MRHSLTKLLAASGSNSPTRSESPEPAATCSLPSDLTRAAAGEEETAAAGSPGRKQQFGDEGELEAGRGSRGGVAVRAPSPEEMEEEAIASLPGEETEDMDFLSGLELADLLDPRQPDWHLDPGLSSPGPLSSSGGGSDSGGLWRGDDDDEAAAAEMQRFSDLLQRLLNGIGGCSSSSDSGSAEKRRRKSPGGGGGGGSGNDNNQAATKSPRKAAAAAARLNRLKKKEYVMGLESRVRGLAAENQELRAENRELGKRVQALQEESRYLRAVLANETGLARLLSRLSGVGLRLTTSLFRDSPAGDHDYALPVGKQKQDLLEEDDSAGGVCLHVDKDKVSVEFCSACARKASSSLKM
